Our source for the binding values is paper PMC6351032.

Results are given in words; binding and its absence hold for the method and conditions named.

The experiment has as its target human epidermal growth factor receptor HER2/neu (human (endogenous in SK-BR-3)) (UniProt P04626). The experiment can be described thus: flow cytometry on cells; ~10^5 SK-BR-3 cells (HER2-positive) incubated with the protein at 2 μm in PBS with 1% bovine serum albumin on ice for 15 min, washed twice; FL1 channel (488 nm laser, 533/30 BP), live single cells; HER2-negative CHO cells as control; only the binder purified. A general note: In flow cytometry, cells or beads pass a laser one at a time.

B1: FITC-conjugated beta-lactoglobulin (protein, UniProt P02754 17-178)
chain: LIVTQTMKGLDIQKVAGTWYSLAMAASDISLLDAQSAPLRVYVEELKPTPEGDLEILLQKWENGECAQKKIIAEKTKIPAVFKIDALNENKVLVLDTDYKKYLLFCMENSAEPEQSLACQCLVRTPEVDDEALEKFDKALKALPMHIRLSFNPTQLEEQCHI
modifications: conjugated to FITC (fluorescein isothiocyanate), sites not stated
As for B1, the binding result is given as “no binding (tested: 2 μm)”.
